These results are taken from article PMC8673669.

The exact form of at least one protein or probe is not confirmed. No signal at the amounts used counts as a negative. Tags and fusion partners may be left off the protein sequences shown.

The data set addresses T1, SmFTZ-F1 (Schistosoma mansoni) (UniProt A0A5K4F6G6).
T1 sequence (looked up, limits assumed): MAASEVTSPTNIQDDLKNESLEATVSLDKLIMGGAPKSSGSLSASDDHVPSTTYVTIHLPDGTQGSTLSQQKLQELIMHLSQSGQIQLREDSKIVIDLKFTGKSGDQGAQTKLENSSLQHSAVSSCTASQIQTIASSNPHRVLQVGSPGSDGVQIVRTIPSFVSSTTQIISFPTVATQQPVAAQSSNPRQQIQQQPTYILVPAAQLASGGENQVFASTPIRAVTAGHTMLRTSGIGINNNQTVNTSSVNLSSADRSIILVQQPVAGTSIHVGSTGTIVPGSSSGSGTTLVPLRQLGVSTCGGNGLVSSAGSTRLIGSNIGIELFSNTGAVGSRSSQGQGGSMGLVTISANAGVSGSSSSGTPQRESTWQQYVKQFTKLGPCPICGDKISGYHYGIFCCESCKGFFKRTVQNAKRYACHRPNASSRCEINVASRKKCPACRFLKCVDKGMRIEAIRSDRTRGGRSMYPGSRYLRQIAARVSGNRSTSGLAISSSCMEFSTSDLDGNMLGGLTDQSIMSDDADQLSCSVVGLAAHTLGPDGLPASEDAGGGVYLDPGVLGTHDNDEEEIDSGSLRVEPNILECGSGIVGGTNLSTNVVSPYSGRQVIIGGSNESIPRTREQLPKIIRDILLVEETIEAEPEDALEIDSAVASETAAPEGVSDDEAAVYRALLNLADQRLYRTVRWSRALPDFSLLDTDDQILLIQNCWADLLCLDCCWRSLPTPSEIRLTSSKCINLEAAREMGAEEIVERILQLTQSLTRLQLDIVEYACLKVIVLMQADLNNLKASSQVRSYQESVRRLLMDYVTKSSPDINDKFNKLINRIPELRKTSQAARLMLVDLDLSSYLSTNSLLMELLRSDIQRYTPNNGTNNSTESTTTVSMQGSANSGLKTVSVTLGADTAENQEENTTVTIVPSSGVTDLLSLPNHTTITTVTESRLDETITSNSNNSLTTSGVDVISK
Briefly: EMSA. Conditions: LightShift Chemiluminescent EMSA kit per manufacturer, 20 uL reactions, PURExpress IVT protein, 20- or 200-fold unlabeled competitor, protein translated in vitro.

Setting [1] is: label: biotin 3' end, both strands.

“AAGGACACGTGAAGGTTATAATTAGGA (double strand) [Smp_331380 (meg-8.3) RE #1]”: under setting [1], the binding result is reported as “binds”. Same read-out and setting: to “AATGTTTTCCAAGGTCATTGAATGTT (double strand) [Smp_332390 RE]” belongs “binds”; to “GATCCACCAAGGTCATGGCA (double strand) [SF-1 RE #1]”, “binds”; to “CAACAAAAATTCAGAAGGTCAATGGAAGATGTG (double strand) [Smp_200180 RE #3]”, “no binding”. The same measure, in the same setting: to “AGACTATTCTCAAGGTTAGAGAATCT (double strand) [Smp_058790 RE]” belongs “binds”; to “TTTTAATACCAAGGTTGGGCTTGAT (double strand) [Smp_204150 RE]”, “no binding”; to “GTCTGTCAAAAGAAGGTTGAGAAGATTGG (double strand) [Smp_245720 RE #3]”, “no binding”. The same measure, in the same setting: to “AACCGAACTATGAAGGTCCATTTAGA (double strand) [Smp_042670 RE]” belongs “no binding”; to “AATAACAGGCTTTTTAAGGTCAGAGCAGGTGTTA (double strand) [Smp_315490 RE #2]”, “no binding”. With “TTGCATTTATAATAAGGTCAAAACTAT (double strand) [Smp_200180 RE #4]”, the binding result under setting [1] is recorded as “no binding”. Same read-out and setting: to “ATGAGAATTCAAGGTAATCTAATTT (double strand) [Smp_003600 RE #1]” belongs “no binding”. “GGTTGTCCCAAGGTCACCGAGTCAA (double strand) [FTZ-F1 RE #2 (D. melanogaster)]”: the binding result under setting [1] is given as “binds”. As to “TGACACTGTGAAGGTCGTTTGATAT (double strand) [Smp_045490 RE]”, the binding result under setting [1] is reported as “no binding”. As to “ACGGTAAGTGAAGGTTTCCCAATTAAGATG (double strand) [Smp_342050 RE #2]”, the binding result under setting [1] is recorded as “no binding”. Turning to “GGTTGTCTCAAGGTCACCGAGTCAA (double strand) [FTZ-F1 RE #1 (D. melanogaster)]”, the binding result under setting [1] was “binds”. Still for that read-out and setting: under “AGTTTTACATAAGGTTATGATAGTCAGCTTT (double strand) [Smp_245720 RE #4]” stands “no binding”; under “AGCTTCAGGTCAAGGTCAGAG (double strand) [DR01 RE]”, “binds”; under “TCCAAATATCAAGGTAGGTCACTTA (double strand) [Smp_342050 RE #1]”, “no binding”.

Consider “TGTCCAGGACAAGGTTAGATGGGGA (double strand) [Smp_207040 RE]”, for which, under setting [1], the binding result is “no binding”.

As to “AGTGATATCCAAGGTCATTTAAAG (double strand) [Smp_174060 RE #2]”, the binding result under setting [1] is recorded as “binds”. Turning to “ACAAGCAAGGGGAAGGTTGACATCATTTA (double strand) [Smp_042390 RE]”, the binding result under setting [1] is “no binding”. On to “ACACGGGCAGAGAAAGTCAAGGTACAAGAAGACTAC (double strand) [Smp_200180 RE #1]”, for which the binding result under setting [1] is listed as “no binding”. Same read-out and setting: under “TACCACAATCAAGGTGACGTTATTA (double strand) [Smp_315490 RE #1]” stands “no binding”; under “CAGTAAGTTGAAGGTTTTGAAATA (double strand) [Smp_315490 RE #3]”, “no binding”; under “GCATAACTATCAAGGTGTATAATCTCTG (double strand) [Smp_245720 RE #2]”, “no binding”. On the same count and under the same terms, under “TATCAAGACTCAAGGTATTTCAAAGCCCTT (double strand) [Smp_200180 RE #2]” stands “no binding”.

Turning to “GTAAACAAGGAAGGTTGAACATGAGGTCAGC (double strand) [Smp_003600 RE #3]”, the binding result under setting [1] was “no binding”. Same read-out and setting: to “AGTTATGCAAAGTTAAGGTCAAACCCATTACAC (double strand) [Smp_245720 RE #1]” belongs “no binding”; to “AACCAATTTCAAGGTCAGAATCTTTA (double strand) [Smp_344050 RE]”, “binds”.

In the case of “AAAATAATGAGCAAGGTAATGCATATTTC (double strand) [NS competitor (Smp_075350 RE)]”, the binding result is on record as “no binding”. “CCTTTAAATCAAGGTTAAAACACCC (double strand) [Smp_319070 RE]”: the binding result under setting [1] is listed as “binds”. Consider “ATTTCTTACCAAGGCCATAAAATAC (double strand) [Smp_174060 RE #1]”, for which the binding result under setting [1] is recorded as “no binding”. Turning to “CACAAGTCATCTAGGTTTGATACAATGAGTGATC (double strand) [Smp_075350 RE #2]”, the binding result under setting [1] is recorded as “no binding”. On to “TTTACCGATTGAAGGTGACAGTGTAAGAG (double strand) [Smp_003600 RE #2]”, for which, under setting [1], the binding result is “no binding”. “ATTCTCTACAAGGTCAAGTACGG (double strand) [Smp_166290 RE #4]”: under setting [1], the binding result is listed as “binds”.
